pKi: −log10 of the molar value. The match of structure and compound is tentative.
Biological target: human MC2R (Homo sapiens, UniProt Q01718)
Test: Inhibition of binding of ACTH in human MC2R-containing membranes (SPA radioligand competition)
Conditions: read-out: hMC2 membrane binding; competition with 0.2 nM [125I]-TYR23]-ACTH (1-39), membranes of CHO-K1 cells expressing hMC2 receptor; tested form: TFA (1:1)

Protein sequences, listed by entry. Tags and fused reporters are not part of them.
UniProt Q01718, whole entry: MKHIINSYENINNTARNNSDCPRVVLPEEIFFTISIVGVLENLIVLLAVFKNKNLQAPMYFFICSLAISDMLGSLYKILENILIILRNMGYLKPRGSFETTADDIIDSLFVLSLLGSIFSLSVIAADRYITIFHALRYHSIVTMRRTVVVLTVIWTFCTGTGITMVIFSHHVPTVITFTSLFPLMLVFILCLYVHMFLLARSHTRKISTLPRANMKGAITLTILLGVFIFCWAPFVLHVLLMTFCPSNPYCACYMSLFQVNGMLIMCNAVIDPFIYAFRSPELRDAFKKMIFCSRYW
UniProt Q8TCY5, whole entry partner: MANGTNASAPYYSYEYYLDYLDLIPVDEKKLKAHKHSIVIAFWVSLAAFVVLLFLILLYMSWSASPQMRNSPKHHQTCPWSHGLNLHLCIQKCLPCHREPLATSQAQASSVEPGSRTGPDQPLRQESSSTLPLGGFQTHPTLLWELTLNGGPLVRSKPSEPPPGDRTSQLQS

Q: With `CCOc1ccc(C(=O)N2CCN(c3ccc(-c4cccnc4OCC)nc3CNCCCOCCOCCOCCOCCNC(=O)[C@@H](CCCCNC(=O)CN3CCN(CC(=O)O)CCN(CC(=O)O)CCN(CC(=O)O)CC3)NC(=O)[C@@H](CCC(=O)O)NC(=O)CCCc3ccc(I)cc3)[C@H](CC)C2)c(C(F)(F)F)n1` as the compound, how does the pKi read?
A: > 8.00

— US20230405157A1, “MELANOCORTIN TYPE 2 RECEPTOR (MC2R) TARGETED THERAPEUTICS AND USES THEREOF” (Radionetics Oncology, Inc., priority 2022, published 2023)
